In patent publication US20200231694A1, “PHARMACEUTICAL COMBINATIONS COMPRISING AN ANTI-BST-1 ANTIBODY AND A CYTIDINE ANALOGUE” (BERLIN-CHEMIE AG, priority 2017, published 2020):
Results are given in words; binding and its absence hold for the method and conditions named. Some entries that bind do so weakly or less than the wild type.

Target: T1, ADP-ribosyl cyclase 2 (CD157; BST1) (human, UniProt Q10588 33-293)
T1 construct: Endogenous lipid-anchored BST1 on human cell lines (A549, H226, U937) and on AML patient blasts; also called Bone marrow stromal antigen 1; cell-surface human BST1
T1 sequence: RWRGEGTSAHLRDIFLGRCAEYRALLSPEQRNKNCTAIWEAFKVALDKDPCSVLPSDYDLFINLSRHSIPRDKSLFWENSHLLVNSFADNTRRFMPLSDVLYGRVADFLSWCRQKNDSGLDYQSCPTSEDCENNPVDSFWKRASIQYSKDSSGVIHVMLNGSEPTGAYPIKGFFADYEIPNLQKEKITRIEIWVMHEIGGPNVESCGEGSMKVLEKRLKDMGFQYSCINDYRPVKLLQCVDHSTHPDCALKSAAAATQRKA
Assay: flow cytometry on lymphoblasts from the blood of 20 AML patients

B1: BST1_A2 (full heavy and light chains, SEQ ID NOs 74 and 76) (antibody, V domains shown)
VH: QVQLVQSGAEVKKPGASVKVSCKASGYSFIEYTINWVRQAPGQGLEWIGNIDPYYGTTYYNQMFTGRATLTVDTSISTAYMELSRLRSDDTAVYYCARGSAWFPYWGQGTLVTVSS
VL: DIQMTQSPSSLSASVGDRVTITCSASSSVTYMYWYQQKPGKAPKLLIYDTSNLASGVPSRFSGSGSGTDYTLTISSLQPEDFATYYCQQWSNYPLTFGQGTKVEIKR
In the case of B1, the binding is reported as “binds”.
